According to PubChem BioAssay AID2685 (National Center for Advancing Translational Sciences (NCATS), 2010):
The list shows a part of the results. These are further read-outs of the screen, such as a control signal, another cell line or another target. No call is given for them. The list favours compounds with an active or inconclusive main result. Potencies come from curve fits of mixed quality, noted in brackets.

Test: qHTS Assay for Lipid Storage Modulators in Drosophila S3 Cells;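 on cell number change: cells counted by Cell Tracker Red CMTPX staining in the red channel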
Conditions: BODIPY lipid droplet fluorescence, 18-24 h; for cell number change: measured here: cell count max response, cells fed with added oleic acid
How it was run: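 Drosophila S3 cells loaded with oleic acid (400 uM, as added) and compounds at several concentrations; lipid droplets imaged by 488-nm laser-scanning cytometry, 500–530 nm intensity and object ratio to cell channel. Percent activity normalized to 20 uM Triacsin C.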

[1] = measured here: lipid fluorescence (Fed channel) AC50, cells fed with added oleic acid
[2] = measured here: cell number channel AC50, cells fed with added oleic acid

| SMILES | cell number change | AC50 [1] | AC50 [2] |
| --- | --- | --- | --- |
| CC(=O)c1ccc(N2CCN(C(=O)CCC(=O)Nc3ccc4nc(N5CCN(C)CC5)cc(C)c4c3)CC2)cc1 | 7.14% | 10.3 µM [rising, partial curve] |  |
| CN(CC(=O)Nc1ccc(S(=O)(=O)N2CCCC2)cc1)Cc1ccc(Cl)cc1 |  | 9.2 µM [falling, partial curve, poor fit] |  |
| O=C1CN(C(=O)COC(=O)c2cccc(Br)c2)c2ccccc2N1 | 14% | 13 µM [rising, partial curve] |  |
| Nc1c(S(=O)(=O)c2cccs2)c2nc3ccccc3nc2n1CCc1ccccc1 | -3.51% |  |  |
| COc1ccc(C)c2sc(NC(=O)c3cccc(N4C(=O)CCC4=O)c3)nc12 | 13% |  |  |
| COCCCN1C(=O)c2ccc(C(=O)OCC(=O)N(CCC#N)c3cc(C)cc(C)c3)cc2C1=O | 85% |  | 29.1 µM [rising, single point] |
| O=[N+]([O-])c1ccc(Oc2cc(NC3CCCCCCC3)c([N+](=O)[O-])cc2[N+](=O)[O-])cc1 | -10.8% |  |  |
| Cc1cc(C)cc(C(=O)Nc2cccnc2)c1 | -3.81% | 29.1 µM [rising, single point] |  |
| Cc1cccc(C(=O)N(Cc2cccs2)C2CCS(=O)(=O)C2)c1 (configuration not stated) | 8.96% |  |  |
| COc1cc(OC)cc(C(=O)NC2=NCCS2)c1 | -10.1% | 0.0164 µM [rising, full curve, poor fit] |  |
| CN(C)/C=C(\C#N)C(=O)Nc1ccccc1 | -2.61% | 2.91 µM [rising, partial curve] |  |
| Cc1cccc(NC(=O)Cn2cc(C(=O)c3ccco3)c3ccccc32)c1 | -12.6% |  |  |
| COc1ccc(N2CCN(C(=O)CCCC3=NS(=O)(=O)c4ccccc4N3)CC2)cc1 | -0.976% |  | 0.517 µM [rising, full curve] |
| CC(=O)c1ccc(OCC(=O)OC(C)C(=O)NC2CCCCC2C)cc1 (configuration not stated) |  | 29.1 µM [falling, single point] |  |
| CNc1ccncc1S(=O)(=O)NC | 7.76% | 0.0058 µM [falling, full curve, poor fit] |  |
| Cc1nc2cc(NC(=O)c3ccc([N+](=O)[O-])s3)ccc2s1 | 11.4% | 0.58 µM [rising, single point] |  |
| CC1CCN(CC(=O)N2CCN(c3ccccc3)CC2)CC1 | -3.44% |  |  |
| CS(=O)(=O)N(CC(N)=O)Cc1ccc(Cl)cc1 | -45.3% |  | 29.1 µM [falling, single point] |
| CCOC(=O)CCNC(=O)N1CCCC(C(=O)c2ccccc2SC)C1 (configuration not stated) | -37% | 18.4 µM [falling, single point] |  |
| Cc1ccc(S(=O)(=O)N(C)c2ccc(OCC(=O)NCc3ccco3)cc2)cc1 | 36.1% | 5.8 µM [rising, single point] | 5.17 µM [rising, full curve, poor fit] |
| Cc1ccc(S(=O)(=O)NC2=NCN(C3CCN(Cc4ccccc4)CC3)CN2)cc1 | 5.84% |  |  |
| CC(=O)c1cccc(NC(=O)COc2cc3oc(=O)c(CC(C)O)c(C)c3cc2Cl)c1 (configuration not stated) | -22% | 9.2 µM [falling, partial curve, poor fit] |  |

| SMILES | cell number change | AC50 [1] | AC50 [2] |
| --- | --- | --- | --- |
| Cc1cccc(N2CCN(C(=O)N3CCCCC3)CC2)c1C |  |  | 0.13 µM [falling, full curve, poor fit] |
| CSc1ccc(Cl)c(C(=O)OCC(=O)N2CCNC2=O)c1 | 0.973% |  | 0.0517 µM [falling, full curve, poor fit] |
| COc1ccccc1OC(=O)c1ccc(S(=O)(=O)N(C)C)cc1 | -43% | 0.092 µM [falling, full curve, poor fit] | 8.2 µM [falling, partial curve, poor fit] |
| O=c1ccc(-c2ccccc2)nn1Cc1ccccc1F | 3.57% | 0.13 µM [rising, full curve, poor fit] |  |
| COc1ccc(COc2ccccc2C(N)=O)cc1F | 15.3% | 0.0731 µM [falling, full curve, poor fit] |  |
| Cc1nc(NC(=O)c2ccc3c(c2)OCO3)ccc1Br | 5.65% | 0.146 µM [rising, full curve, poor fit] | 4.61 µM [rising, partial curve, poor fit] |
| Cc1c(C(=O)O)oc2ccc(S(=O)(=O)N3CCCC3)cc12 | -11.3% |  |  |
| O=C1[C@@H]2Cc3c([nH]c4ccccc34)C(c3ccccc3)N2C(=O)CN1C1CCN(Cc2ccccc2)CC1 (some centres not stated) | -53.5% | 29.1 µM [falling, single point] | 29.1 µM [falling, single point] |
| CC(=O)NC1(c2ccccc2)CCN(Cc2nnnn2C(C)(C)C)CC1 | 14.4% | 29.1 µM [falling, single point] |  |
| O=C(CSc1nc2c(cnn2-c2ccccc2)c(=O)[nH]1)N1CCOCC1 | 8.33% | 0.092 µM [rising, full curve, poor fit] |  |
| Cc1cc(C)c(S(=O)(=O)N/N=C/c2ccc([N+](=O)[O-])o2)c(C)c1 | 0.495% | 29.1 µM [rising, single point] |  |
| CCCCOC(=O)C1=C(C)Nc2ncnn2C1c1ccc(OCC)c(OC)c1 (configuration not stated) | -20.6% |  |  |
| Cc1ccc(C)c(Nc2nc(N)c3ccccc3n2)c1 | 15% |  |  |
| Nc1c(Cl)cc(Cl)cc1C(=O)OCC(=O)N1CCOCC1 | 33% | 6.51 µM [rising, partial curve, poor fit] | 4.11 µM [rising, full curve, poor fit] |
| CC(C)Nc1nc(NC(C)C)nc(C(N)=O)n1 | 5.5% | 29.1 µM [falling, partial curve, poor fit] |  |
| O=C(CNc1ccc(F)cc1)c1ccccc1 | 0.551% | 0.366 µM [falling, partial curve, poor fit] |  |
| CCn1nnnc1SCC(=O)c1ccc(C)cc1C | -11.8% | 6.51 µM [falling, single point] |  |
| CC(C)c1ccc2nc(N)sc2c1 | -23.1% |  | 0.291 µM [falling, full curve, poor fit] |
| COC(=O)c1c(NC(=O)CN2CCN(c3ccccc3OC)CC2)c2c(C)cccc2n1C | 12.2% |  |  |
| CC1=C(C)CC(C(=O)NC2CCCC2)C(C(=O)O)C1 (configuration not stated) | -1.1% |  |  |
| C/C(N)=C(/C#N)C(=O)COC(=O)c1ccc(OCC2CCCO2)cc1 (configuration not stated) | 28.2% |  |  |
| N#CC1=C(N)C2=CCCC[C@H]2[C@H](c2ccc(Br)cc2)C1(C#N)C#N | -6.79% | 29.1 µM [falling, single point] |  |

Given with bars between the fields: entries from further up
SMILES | cell number change | AC50 [1] | AC50 [2]
CCCCOC(=O)C1=C(C)Nc2ncnn2C1c1ccc(OCC)c(OC)c1 (configuration not stated) | -20.6% |  | 
Cc1ccc(C)c(Nc2nc(N)c3ccccc3n2)c1 | 15% |  | 
Nc1c(Cl)cc(Cl)cc1C(=O)OCC(=O)N1CCOCC1 | 33% | 6.51 µM [rising, partial curve, poor fit] | 4.11 µM [rising, full curve, poor fit]
CC(C)Nc1nc(NC(C)C)nc(C(N)=O)n1 | 5.5% | 29.1 µM [falling, partial curve, poor fit] | 

Remaining list, next part:

| SMILES | cell number change | AC50 [1] | AC50 [2] |
| --- | --- | --- | --- |
| Cc1cc(C)n2nc(SCC(=O)N3CCOCC3)nc2n1 | 19.1% | 5.8 µM [falling, single point] |  |
| O=C(COC(=O)CCCOc1ccc(Cl)cc1Cl)NCc1ccccc1 |  |  | 4.11 µM [rising, single point] |
| CCCCC(=O)N/N=C(\C)CC(=O)Nc1cc(Cl)ccc1OC | -38.3% |  | 29.1 µM [falling, single point] |
| COc1ccc(-c2cc(C#N)nc(N3CCNCC3)n2)cc1 |  |  | 0.731 µM [rising, single point] |
| Cc1cc(C(=O)Nc2ncn[nH]2)ccc1[N+](=O)[O-] | 1.85% |  |  |
| Cc1cnc(NC(=O)[C@H](C)N2C(=O)C3CCCCC3C2=O)s1 (some centres not stated) | 15% | 6.51 µM [falling, single point] | 0.517 µM [falling, partial curve] |
| O=C(COc1ccc(Br)cc1)NC(=S)Nc1ccccc1N1CCOCC1 | -24.9% | 29.1 µM [rising, single point] |  |
| C=Cn1c(C(=O)O)ccc1-c1ccc(OC)cc1 | -14.9% | 5.8 µM [falling, single point] |  |
| Clc1cccc(CSc2nnc([C@@H]3CCCN3)o2)c1 | 58.8% |  | 3.26 µM [rising, partial curve, poor fit] |
| COc1cccc(/C=C/C(=O)c2ccc(C)c([N+](=O)[O-])c2)c1 | -16.5% | 0.58 µM [rising, single point] |  |
| O=C(Nc1ccccn1)c1cc2ccccc2cc1O | 47.1% | 23.1 µM [falling, single point] |  |
| OC(CN1CC=C(/C=C/c2ccc(Br)cc2)CC1)c1ccccc1 (configuration not stated) | -6.08% | 29.1 µM [falling, single point] |  |
| COC(=O)c1ccc(NC(=O)CNC(=O)C2CCCCC2)c(C)c1 | 186% | 0.58 µM [rising, single point] | 18.4 µM [rising, partial curve] |
| CCCN(CCC)C(=S)NC(=O)c1ccc(-c2ccccc2)cc1 | -74.2% | 29.1 µM [falling, single point] | 29.1 µM [falling, single point] |
| CCC(C)NC(=O)CCc1nc2ccccc2n1-c1ccccc1 (configuration not stated) | 4.15% | 6.51 µM [falling, single point] | 6.51 µM [falling, single point] |
| O=C(CSc1nnc(-c2cccc(F)c2)o1)NC1CCCC1 | 17.3% | 29.1 µM [rising, single point] |  |
| COc1ccccc1CN1C(=O)CN(C2CCCCCC2)C(=O)C1c1ccc(F)cc1 (configuration not stated) | -13.2% |  |  |
| COc1cc(Cc2nccc3cc(OC)c(OC)cc23)c(S(=O)(=O)O)cc1OC | 37.5% |  | 2.31 µM [rising, full curve] |
| Cc1ccc(OCCOCCNC(C)C)c(Br)c1 | 26.2% |  |  |
| Cc1ccc(C(=O)NCC(=O)N/N=C/c2cccs2)cc1[N+](=O)[O-] | -3.85% | 0.00461 µM [falling, full curve, poor fit] | 0.731 µM [falling, full curve, poor fit] |
